From patent publication US12011497B2, “Compounds, compositions containing same, and use thereof for promoting hair growth” (Molgenbio Co. Ltd., priority 2018, dated 2024)
For at least one compound, name, drawing or mass did not settle the structure.

Tested on: vibrissae tissue of mice
Test: hair growth-promoting activity in cultured isolated mouse vibrissae
Format: cell-based
Conditions: C57BL/6 mouse vibrissae culture, FIG. 57
Description: Hair growth-promoting activity of the nine novel compounds of the present invention relative to that of the parent drug (FK506) was evaluated using vibrissae tissue of mice. The mouth and mouth tissue (whisker pad) around the mouth where thick hair grows were peeled off from each of 6- to 8-week-old experimental black mouse (C57BL/6 mouse) and treated with […] for a short time of several seconds. The treated mouth tissue was prepared in a state of being immersed in phosphate-buffered saline (PBS) supplemented with 1% penicillin/streptomycin (P/S) on ice. Surrounding subcutaneous fat tissue and connective tissue were removed using forceps and blades while observing the prepared mouth tissue using a dissecting microscope to expose vibrissae tissue. […] Based on the results, it was confirmed that the composition for promoting hair growth, including at least one of the nine novel compounds of the present invention as an active ingredient, had the effects on promoting hair growth as desired, and thus it was determined that the composition may be effectively used for preventing and treating hair loss.

C=CC[C@@H]1/C=C(\C)C[C@H](C)C[C@H](OC)[C@H]2O[C@@](O)(C(=O)C(=O)N3CCCC[C@H]3C(=O)O[C@H](/C(C)=C/[C@@H]3CC[C@@H](O)[C@H](OC)C3)[C@H](C)[C@@H](O)CC1=O)[C@H](C)C[C@@H]2OC [FK506, reference compound]
lengths of vibrissae: increased
